Results deposited as PubChem BioAssay AID1259308 (NCATS, 2017)
This is an unselected part of about 59,000 deposited reagents. Over the whole deposit, about 1,510 (2.6%) are marked active. 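Calls use total luciferase alone and ignore viability, so some active siRNAs may act by altering cell number.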 Reagents against one gene are numbered here. No sequences are given here.

- Purpose: 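Knock-downs that increase output of a recombinant reporter protein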 (primary screen)
- Cell system: human HEK293 embryonic kidney cells stably expressing firefly luciferase (HEK-CMV-Luc2-Hygro)
- Reagents: single siRNA against human genes, 0.8 pmol siRNA per well
- Time to read-out: 72 h
- Read-out: 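Reporter luminescence and viable-cell signal on separate replicate plates, given as percent of non-targeting control and median/MAD z-scores, plus per-cell luciferase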
- Reading the numbers: total luciferase, z-score and total luciferase, % of control: higher = more reporter protein produced; luciferase per cell, z-score: higher = more reporter output per viable cell; viable cells, % of control: higher = more viable cells
- Active means: 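An siRNA counts as active if its total luciferase robust z-score exceeds 3; genes with two or more such siRNAs out of three were retested with fresh siRNAs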
- Meaning of the calls: active = raised luciferase; inactive = no rise

target gene | siRNA no. | total luciferase, z-score | total luciferase, % of control | luciferase per cell, z-score | viable cells, % of control | Call
CKM | 1 | 0.633 | 94.5 | 0.761 | 86.4 | inactive
CKM | 2 | 0.443 | 90.7 | 0.00712 | 101 | inactive
CKM | 3 | -1.1 | 60.1 | -0.112 | 69.1 | inactive
CHRM2 | 1 | 0.000483 | 81.9 | -0.0631 | 93 | inactive
CHRM2 | 2 | 0.14 | 84.7 | 0.0577 | 93.2 | inactive
CHRM2 | 3 | -1.06 | 60.9 | -0.0631 | 69.2 | inactive
TMC8 | 1 | 0.05 | 82.9 | 0.94 | 72.3 | inactive
TMC8 | 2 | 0.366 | 89.2 | 0.59 | 85.3 | inactive
TMC8 | 3 | -1.12 | 59.5 | -1.21 | 91.5 | inactive
CBFA2T3 | 1 | -0.0609 | 80.7 | 0.39 | 81.4 | inactive
CBFA2T3 | 2 | -1.72 | 47.6 | -1.31 | 75.1 | inactive
CBFA2T3 | 3 | 4.35 | 168 | 3.11 | 82.9 | active
WASL | 1 | -1.48 | 52.5 | -1.61 | 89.7 | inactive
WASL | 2 | 0.627 | 94.4 | -0.243 | 112 | inactive
WASL | 3 | 0.706 | 95.9 | 0.317 | 98.6 | inactive
ZBTB10 | 1 | -0.736 | 67.3 | -1.34 | 107 | inactive
ZBTB10 | 2 | 0.262 | 87.1 | -0.486 | 111 | inactive
ZBTB10 | 3 | 0.885 | 99.5 | 1.17 | 81.6 | inactive
RPS27A | 1 | -2.84 | 25.4 | -2.13 | 49.8 | inactive
RPS27A | 2 | -1.99 | 42.4 | 0.0866 | 46.3 | inactive
RPS27A | 3 | -3.22 | 17.9 | -3.67 | 52.7 | inactive
DMWD | 1 | -1.57 | 50.7 | -0.909 | 72 | inactive
DMWD | 2 | -0.0564 | 80.8 | -0.000595 | 90.3 | inactive
DMWD | 3 | 0.431 | 90.5 | 0.0532 | 99.7 | inactive
LIG1 | 1 | 1.41 | 110 | 1.3 | 87.2 | inactive
LIG1 | 2 | -0.527 | 71.4 | -0.0564 | 81 | inactive
LIG1 | 3 | 0.219 | 86.2 | 0.336 | 88.2 | inactive
BBS1 | 1 | -0.999 | 62 | -0.981 | 89.7 | inactive
BBS1 | 2 | 2.05 | 123 | 1.68 | 88.1 | inactive
BBS1 | 3 | 2.12 | 124 | 2.01 | 81.6 | inactive
FAM193A | 1 | -0.728 | 67.4 | -0.813 | 93.3 | inactive
FAM193A | 2 | 0.688 | 95.6 | 1.43 | 73.2 | inactive
FAM193A | 3 | -0.812 | 65.7 | -0.223 | 77.9 | inactive
C1QTNF5 | 1 | 1.56 | 113 | 1.02 | 96.6 | inactive
C1QTNF5 | 2 | 0.28 | 87.5 | 0.709 | 81.1 | inactive
C1QTNF5 | 3 | 2.55 | 133 | 2.02 | 87.1 | inactive
ZNF479 | 1 | -1.25 | 57.1 | -0.842 | 79.6 | inactive
ZNF479 | 2 | -0.347 | 75 | -0.689 | 100 | inactive
ZNF479 | 3 | -0.724 | 67.5 | -1.08 | 100 | inactive
CNN3-DT | 1 | 0.203 | 85.9 | -0.0771 | 98 | inactive
CNN3-DT | 2 | -1.37 | 54.7 | -0.786 | 75.2 | inactive
CNN3-DT | 3 | 0.692 | 95.6 | -0.273 | 115 | inactive
CIROZ | 1 | -1.46 | 52.9 | -1.76 | 94.1 | inactive
CIROZ | 2 | 0.928 | 100 | 0.658 | 94.3 | inactive
CIROZ | 3 | 0.234 | 86.5 | -0.278 | 104 | inactive
CYP4F12 | 1 | 0.0269 | 82.4 | 0.322 | 84.6 | inactive
CYP4F12 | 2 | -1.52 | 51.6 | 0.734 | 47.6 | inactive
CYP4F12 | 3 | -0.362 | 74.7 | -0.131 | 86.4 | inactive
RSL1D1 | 1 | -0.706 | 67.9 | -0.783 | 93.2 | inactive
RSL1D1 | 2 | -1.36 | 54.8 | -1.66 | 94.8 | inactive
RSL1D1 | 3 | -0.365 | 74.6 | -0.05 | 84.5 | inactive
ABCC3 | 1 | -0.669 | 68.6 | -1.6 | 117 | inactive
ABCC3 | 2 | -1.43 | 53.4 | -1.06 | 78.8 | inactive
ABCC3 | 3 | -0.0304 | 81.3 | -0.0142 | 91.2 | inactive
PLA2G4C | 1 | -0.0648 | 80.6 | 0.402 | 81 | inactive
PLA2G4C | 2 | 0.816 | 98.1 | 0.484 | 96.5 | inactive
PLA2G4C | 3 | 0.201 | 85.9 | 0.255 | 89.7 | inactive

An excerpt taken from the entries so far:
target gene | siRNA no. | total luciferase, z-score | total luciferase, % of control | luciferase per cell, z-score | viable cells, % of control | Call
ZNF479 | 2 | -0.347 | 75 | -0.689 | 100 | inactive
ZNF479 | 3 | -0.724 | 67.5 | -1.08 | 100 | inactive
CNN3-DT | 1 | 0.203 | 85.9 | -0.0771 | 98 | inactive
